Measurements as given in article doi:10.1101/2022.12.22.521453.
Results are given in words; binding and its absence hold for the method and conditions named. Some binding calls cover weakened binding; strength is not graded here.

Target: eIF2Bα2 dimer (human) (UniProt Q14232)
Assay: cryo-EM structure

- binding: binds
B1: eIF2Bα2 dimer (complex, UniProt Q14232 2-305)
chain: DDKELIEYFKSQMKEDPDMASAVAAIRTLLEFLKRDKGETIQGLRANLTSAIETLCGVDSSVAVSSGGELFLRFISLASLEYSDYSKCKKIMIERGELFLRRISLSRNKIADLCHTFIKDGATILTHAYSRVVLRVLEAAVAAKKRFSVYVTESQPDLSGKKMAKALCHLNVPVTVVLDAAVGYIMEKADLVIVGAEGVVENGGIINKIGTNQMAVCAKAQNKPFYVVAESFKFVRLFPLNQQDVPDKFKYKADTLKVAQTGQDLKEEHPWVDYTAPSLITLLFTDLGVLTPSAVSDELIKLYL
